The list shows a part of the results, in another mix than the full data. At the low end of the ranking the order means little.

The assay addresses T1, ELF3 (UniProt P78545).
T1 sequence: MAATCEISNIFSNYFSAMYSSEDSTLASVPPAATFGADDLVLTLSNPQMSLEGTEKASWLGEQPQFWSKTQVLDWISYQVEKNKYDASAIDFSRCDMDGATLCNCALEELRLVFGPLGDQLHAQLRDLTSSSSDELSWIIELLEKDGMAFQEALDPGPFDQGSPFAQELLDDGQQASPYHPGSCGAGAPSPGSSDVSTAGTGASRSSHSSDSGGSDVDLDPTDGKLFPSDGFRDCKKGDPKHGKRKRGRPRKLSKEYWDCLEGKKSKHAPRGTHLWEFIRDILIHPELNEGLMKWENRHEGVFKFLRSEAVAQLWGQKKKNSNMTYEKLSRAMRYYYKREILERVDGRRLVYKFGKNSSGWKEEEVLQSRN
Nature of the assay: DAPPL (digital affinity profiling via proximity ligation, sequencing). The note with it: 10 mM Tris-HCl pH 7.5, 50 mM NaCl, 1 mM DTT, 4% glycerol, room temperature, 30 min; GST-TFs on glutathione beads, 16-mer random dsDNA library, 0.1% …; high values mean tight binding; double strand, one strand shown; scale: fold enrichment (6-mer frequency, TF over GST control).
Consider CGGCAT, for which the binding signal turned out to be 1.02.

The sequence CTCGGC had a binding signal of 1.52.

AATAAA showed a binding signal of 1.31.

As for GCTGGC, the binding signal stood at 0.88.

Sequence CCTTCG returned a binding signal of 1.28.

With ATTCCA, the binding signal was 1.04.

For the sequence TTCTTA, the binding signal was 1.47.

CATGTT: the binding signal came to 0.909.

ACCACG had a binding signal of 0.986.

Regarding CGTACC, the binding signal amounted to 1.25.

Turning to ACACAT, the binding signal was 1.28.

As for AAACGA, the binding signal came out at 1.11.

On to CCCTTA, for which the binding signal was found to be 1.29.

As to CACTAG, the binding signal was 0.961.

Consider TTGACG, for which the binding signal was 1.21.

Regarding CCCGTC, the binding signal came to 1.03.

As to TTGAGG, the binding signal came to 1.05.

The sequence AGTGTA yielded a binding signal of 0.96.

TCTTCC returned a binding signal of 2.33.

Consider AGTTAA, for which the binding signal turned out to be 1.09.

With CCTATA, the binding signal worked out at 1.15.

On to ACGCAC, for which the binding signal was 0.995.

TCGACG displayed a binding signal of 1.06.

ACCCTC had a binding signal of 1.12.

Regarding TTTAAT, the binding signal worked out at 1.3.

Turning to ACGAAT, the binding signal stood at 1.12.

As for TACAGC, the binding signal was 1.16.

CATTAA showed a binding signal of 1.05.

As to TATTTT, the binding signal was 1.36.

Sequence TTGTAG had a binding signal of 1.03.

Consider GCAAAT, for which the binding signal came to 1.17.

Regarding TCATGG, the binding signal is 1.16.

As for CTTTCG, the binding signal stood at 1.4.

GTAGCA had a binding signal of 1.01.

In the case of GTGTTT, the binding signal was 1.17.

Regarding CATCAC, the binding signal was determined as 1.14.

In the case of TCAAGC, the binding signal amounted to 1.04.

For the sequence ACTCCA, the binding signal was 0.993.

AATCTT: the binding signal was found to be 1.4.
